Results as given in doi:10.1101/2023.08.01.551545.

T1: SIMR-1::mCherry::2xHA (C. elegans) (UniProt O01477)
T1 sequence: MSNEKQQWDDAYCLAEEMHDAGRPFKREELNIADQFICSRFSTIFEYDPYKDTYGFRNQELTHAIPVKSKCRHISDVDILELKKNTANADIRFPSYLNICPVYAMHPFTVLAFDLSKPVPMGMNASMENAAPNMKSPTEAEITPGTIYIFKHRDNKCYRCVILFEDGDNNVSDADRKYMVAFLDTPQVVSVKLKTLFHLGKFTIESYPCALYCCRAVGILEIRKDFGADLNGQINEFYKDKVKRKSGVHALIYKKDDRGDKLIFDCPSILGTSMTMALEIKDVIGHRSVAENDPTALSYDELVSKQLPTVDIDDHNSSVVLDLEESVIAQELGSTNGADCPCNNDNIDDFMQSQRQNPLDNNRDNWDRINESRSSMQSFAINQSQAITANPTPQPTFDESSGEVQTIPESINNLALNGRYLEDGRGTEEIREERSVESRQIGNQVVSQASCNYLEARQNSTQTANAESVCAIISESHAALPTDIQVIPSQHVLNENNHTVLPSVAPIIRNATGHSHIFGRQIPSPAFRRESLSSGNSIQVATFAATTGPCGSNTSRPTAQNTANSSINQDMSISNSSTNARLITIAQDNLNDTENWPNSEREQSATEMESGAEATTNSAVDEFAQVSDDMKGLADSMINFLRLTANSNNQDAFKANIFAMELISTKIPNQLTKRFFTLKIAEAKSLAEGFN

T2: GFP::3xFLAG::HRDE-1(HK-AA) (C. elegans) (UniProt Q09249)
T2 sequence: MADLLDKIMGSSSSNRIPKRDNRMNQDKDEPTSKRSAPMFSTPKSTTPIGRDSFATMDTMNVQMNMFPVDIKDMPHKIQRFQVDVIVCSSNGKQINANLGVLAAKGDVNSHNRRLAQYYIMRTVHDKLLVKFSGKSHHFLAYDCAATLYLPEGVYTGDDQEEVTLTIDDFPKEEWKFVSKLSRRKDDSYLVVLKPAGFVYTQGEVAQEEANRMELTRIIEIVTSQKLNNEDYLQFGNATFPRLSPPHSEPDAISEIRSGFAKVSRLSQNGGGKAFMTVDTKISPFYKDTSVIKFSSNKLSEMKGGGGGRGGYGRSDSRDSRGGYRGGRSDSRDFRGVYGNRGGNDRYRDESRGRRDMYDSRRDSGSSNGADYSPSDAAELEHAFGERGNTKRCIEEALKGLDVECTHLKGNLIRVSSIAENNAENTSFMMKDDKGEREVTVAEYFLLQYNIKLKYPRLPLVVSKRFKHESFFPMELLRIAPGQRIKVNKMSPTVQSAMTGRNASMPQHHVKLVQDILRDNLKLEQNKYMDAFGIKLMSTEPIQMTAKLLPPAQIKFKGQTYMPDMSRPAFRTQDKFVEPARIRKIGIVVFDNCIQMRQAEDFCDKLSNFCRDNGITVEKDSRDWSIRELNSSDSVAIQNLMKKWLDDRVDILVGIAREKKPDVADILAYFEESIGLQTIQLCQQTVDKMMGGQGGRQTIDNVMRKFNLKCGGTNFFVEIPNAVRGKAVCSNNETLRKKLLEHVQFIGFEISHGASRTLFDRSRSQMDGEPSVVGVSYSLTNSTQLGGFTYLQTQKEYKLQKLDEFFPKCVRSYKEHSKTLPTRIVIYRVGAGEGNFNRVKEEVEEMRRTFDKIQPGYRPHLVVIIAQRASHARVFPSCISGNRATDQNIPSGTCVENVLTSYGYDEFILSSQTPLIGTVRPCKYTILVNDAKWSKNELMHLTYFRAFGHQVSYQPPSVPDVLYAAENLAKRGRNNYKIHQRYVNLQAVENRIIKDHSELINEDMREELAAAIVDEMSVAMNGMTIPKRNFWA

T3: HRDE-2::2xTy1::GFP (C. elegans) (UniProt Q22058)
T3 sequence: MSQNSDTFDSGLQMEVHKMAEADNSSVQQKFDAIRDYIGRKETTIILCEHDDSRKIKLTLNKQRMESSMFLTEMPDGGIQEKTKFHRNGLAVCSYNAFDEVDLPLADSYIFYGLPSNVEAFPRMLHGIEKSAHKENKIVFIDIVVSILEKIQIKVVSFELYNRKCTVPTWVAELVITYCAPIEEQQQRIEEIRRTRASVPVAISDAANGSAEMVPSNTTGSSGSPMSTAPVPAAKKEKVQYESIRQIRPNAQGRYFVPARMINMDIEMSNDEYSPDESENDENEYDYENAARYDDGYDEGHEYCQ


Columns and labels:
Experiment in all cases: affinity purification with mass spectrometry
[1] = target: T1, SIMR-1::mCherry::2xHA (C. elegans)
[2] = target: T2, GFP::3xFLAG::HRDE-1(HK-AA) (C. elegans)
[3] = target: T3, HRDE-2::2xTy1::GFP (C. elegans)

Row | Binder | binding [1] | binding [2] | binding [3]
1 | HRDE-2 (untagged, found or sought by mass spectrometry) (protein, UniProt Q22058 1-305) MSQNSDTFDSGLQMEVHKMAEADNSSVQQKFDAIRDYIGRKETTIILCEHDDSRKIKLTLNKQRMESSMFLTEMPDGGIQEKTKFHRNGLAVCSYNAFDEVDLPLADSYIFYGLPSNVEAFPRMLHGIEKSAHKENKIVFIDIVVSILEKIQIKVVSFELYNRKCTVPTWVAELVITYCAPIEEQQQRIEEIRRTRASVPVAISDAANGSAEMVPSNTTGSSGSPMSTAPVPAAKKEKVQYESIRQIRPNAQGRYFVPARMINMDIEMSNDEYSPDESENDENEYDYENAARYDDGYDEGHEYCQ | no binding | binds | –
2 | SIMR-1 (untagged, in the HRDE-2::2xTy1::GFP strain) (protein, UniProt O01477 1-691) MSNEKQQWDDAYCLAEEMHDAGRPFKREELNIADQFICSRFSTIFEYDPYKDTYGFRNQELTHAIPVKSKCRHISDVDILELKKNTANADIRFPSYLNICPVYAMHPFTVLAFDLSKPVPMGMNASMENAAPNMKSPTEAEITPGTIYIFKHRDNKCYRCVILFEDGDNNVSDADRKYMVAFLDTPQVVSVKLKTLFHLGKFTIESYPCALYCCRAVGILEIRKDFGADLNGQINEFYKDKVKRKSGVHALIYKKDDRGDKLIFDCPSILGTSMTMALEIKDVIGHRSVAENDPTALSYDELVSKQLPTVDIDDHNSSVVLDLEESVIAQELGSTNGADCPCNNDNIDDFMQSQRQNPLDNNRDNWDRINESRSSMQSFAINQSQAITANPTPQPTFDESSGEVQTIPESINNLALNGRYLEDGRGTEEIREERSVESRQIGNQVVSQASCNYLEARQNSTQTANAESVCAIISESHAALPTDIQVIPSQHVLNENNHTVLPSVAPIIRNATGHSHIFGRQIPSPAFRRESLSSGNSIQVATFAATTGPCGSNTSRPTAQNTANSSINQDMSISNSSTNARLITIAQDNLNDTENWPNSEREQSATEMESGAEATTNSAVDEFAQVSDDMKGLADSMINFLRLTANSNNQDAFKANIFAMELISTKIPNQLTKRFFTLKIAEAKSLAEGFN | – | – | no binding
3 | NRDE-3, nuclear Argonaute protein (protein, UniProt Q21691 1-1057) MDLLDKVMGEMGSKPGSTAKKPATSASSTPRTNVWGTAKKPSSQQQPPKPLFTTPGSQQGSLGGRIPKREHTDRTGPDPKRKPLGGLSVPDSFNNFGTFRVQMNAWNLDISKMDERISRIMFRATLVHTDGRRFELSLGVSAFSGDVNRQQRRQAQCLLFRAWFKRNPELFKGMTDPAIAAYDAAETIYVGCSFFDVELTEHVCHLTEADFSPQEWKIVSLISRRSGSTFEIRIKTNPPIYTRGPNALTLENRSELTRIIEAITDQCLHNEKFLLYSSGTFPTKGGDIASPDEVTLIKSGFVKTTKIVDRDGVPDAIMTVDTTKSPFYKDTSLLKFFTAKMDQLTNSGGGPRGHNGGRERRDGGGNSRKYDDRRSPRDGEIDYDERTVSHYQRQFQDERISDGMLNTLKQSLKGLDCQPIHLKDSKANRSIMIDEIHTGTADSVTFEQKLPDGEMKLTSITEYYLQRYNYRLKFPHLPLVTSKRAKCYDFYPMELMSILPGQRIKQSHMTVDIQSYMTGKMSSLPDQHIKQSKLVLTEYLKLGDQPANRQMDAFRVSLKSIQPIVTNAHWLSPPDMKFANNQLYSLNPTRGVRFQTNGKFVMPARVKSVTIINYDKEFNRNVDMFAEGLAKHCSEQGMKFDSRPNSWKKVNLGSSDRRGTKVEIEEAIRNGVTIVFGIIAEKRPDMHDILKYFEEKLGQQTIQISSETADKFMRDHGGKQTIDNVIRKLNPKCGGTNFLIDVPESVGHRVVCNNSAEMRAKLYAKTQFIGFEMSHTGARTRFDIQKVMFDGDPTVVGVAYSLKHSAQLGGFSYFQESRLHKLTNLQEKMQICLNAYEQSSSYLPETVVVYRVGSGEGDYPQIVNEVNEMKLAARKKKHGYNPKFLVICTQRNSHIRVFPEHINERGKSMEQNVKSGTCVDVPGASHGYEEFILCCQTPLIGTVKPTKYTIIVNDCRWSKNEIMNVTYHLAFAHQVSYAPPAIPNVSYAAQNLAKRGHNNYKTHTKLVDMNDYSYRIKEKHEEIISSEEVDDILMRDFIETVSNDLNAMTINGRNFWA | binds | – | –
4 | HRDE-1, nuclear Argonaute protein (untagged, in the HRDE-2::2xTy1::GFP strain) (protein, UniProt Q09249 1-1032) MADLLDKIMGSSSSNRIPKRDNRMNQDKDEPTSKRSAPMFSTPKSTTPIGRDSFATMDTMNVQMNMFPVDIKDMPHKIQRFQVDVIVCSSNGKQINANLGVLAAKGDVNSHNRRLAQYYIMRTVHDKLLVKFSGKSHHFLAYDCAATLYLPEGVYTGDDQEEVTLTIDDFPKEEWKFVSKLSRRKDDSYLVVLKPAGFVYTQGEVAQEEANRMELTRIIEIVTSQKLNNEDYLQFGNATFPRLSPPHSEPDAISEIRSGFAKVSRLSQNGGGKAFMTVDTKISPFYKDTSVIKFSSNKLSEMKGGGGGRGGYGRSDSRDSRGGYRGGRSDSRDFRGVYGNRGGNDRYRDESRGRRDMYDSRRDSGSSNGADYSPSDAAELEHAFGERGNTKRCIEEALKGLDVECTHLKGNLIRVSSIAENNAENTSFMMKDDKGEREVTVAEYFLLQYNIKLKYPRLPLVVSKRFKHESFFPMELLRIAPGQRIKVNKMSPTVQSAMTGRNASMPQHHVKLVQDILRDNLKLEQNKYMDAFGIKLMSTEPIQMTAKLLPPAQIKFKGQTYMPDMSRPAFRTQDKFVEPARIRKIGIVVFDNCIQMRQAEDFCDKLSNFCRDNGITVEKDSRDWSIRELNSSDSVAIQNLMKKWLDDRVDILVGIAREKKPDVHDILKYFEESIGLQTIQLCQQTVDKMMGGQGGRQTIDNVMRKFNLKCGGTNFFVEIPNAVRGKAVCSNNETLRKKLLEHVQFIGFEISHGASRTLFDRSRSQMDGEPSVVGVSYSLTNSTQLGGFTYLQTQKEYKLQKLDEFFPKCVRSYKEHSKTLPTRIVIYRVGAGEGNFNRVKEEVEEMRRTFDKIQPGYRPHLVVIIAQRASHARVFPSCISGNRATDQNIPSGTCVENVLTSYGYDEFILSSQTPLIGTVRPCKYTILVNDAKWSKNELMHLTYFRAFGHQVSYQPPSVPDVLYAAENLAKRGRNNYKIHQRYVNLQAVENRIIKDHSELINEDMREELAAAIVDEMSVAMNGMTIPKRNFWA | – | – | binds

No constants are given. Whether binding was seen depends on the method and setting. Binding seen in cells or lysates may run through a third protein. A yes stands for co-enrichment or nearness to the bait. Other partners may have been found. For some assays here: No binding means not detected with the bait. Where a sequence is shown, tags or fusion partners need not be part of it.
